This is one part of the list. Many values rest on one well or one pass, so single values are uncertain.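 Imaging used 1,536-well plates; nuclei positive for cleaved PARP by antibody were divided by total DNA-stained nuclei to yield the apoptosis fraction. Doses for screening kept most cells viable, and cell lines differ markedly in resting and induced cleaved-PARP levels.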
How the values were obtained:
Assay in all cases: cleaved PARP positive nuclei fraction relative to DMSO control; melanoma cells; higher = more apoptosis
Settings in all cases: library dose: low library concentration; 72 h
CBRC034 = tested on: CBRC034 (line from a melanoma biopsy)
COLO792 = tested on: COLO792
COLO800 = tested on: COLO800
COLO829 = tested on: COLO829
G361 = tested on: G361
IPC-298 = tested on: IPC-298
IST-MEL1 = tested on: IST-MEL1
LB2518-MEL = tested on: LB2518-MEL
LOXIMVI = tested on: LOXIMVI
MEL-HO = tested on: MEL-HO
MZ2-MEL = tested on: MZ2-MEL
MeWo = tested on: MeWo
RPMI7951 = tested on: RPMI7951
RVH-421 = tested on: RVH-421
SkMel28 = tested on: SkMel28
SkMel2 = tested on: SkMel2
SkMel30 = tested on: SkMel30
UACC62 = tested on: UACC62
SkMel5 = tested on: SkMel5
UACC257 = tested on: UACC257

SMILES | cleaved PARP positive nuclei fraction (CBRC034) | cleaved PARP positive nuclei fraction (COLO792) | cleaved PARP positive nuclei fraction (COLO800) | cleaved PARP positive nuclei fraction (COLO829) | cleaved PARP positive nuclei fraction (G361) | cleaved PARP positive nuclei fraction (IPC-298) | cleaved PARP positive nuclei fraction (IST-MEL1) | cleaved PARP positive nuclei fraction (LB2518-MEL) | cleaved PARP positive nuclei fraction (LOXIMVI) | cleaved PARP positive nuclei fraction (MEL-HO) | cleaved PARP positive nuclei fraction (MZ2-MEL) | cleaved PARP positive nuclei fraction (MeWo) | cleaved PARP positive nuclei fraction (RPMI7951) | cleaved PARP positive nuclei fraction (RVH-421) | cleaved PARP positive nuclei fraction (SkMel28) | cleaved PARP positive nuclei fraction (SkMel2) | cleaved PARP positive nuclei fraction (SkMel30) | cleaved PARP positive nuclei fraction (UACC62) | cleaved PARP positive nuclei fraction (SkMel5) | cleaved PARP positive nuclei fraction (UACC257)
O=C(/C=C/c1cccnc1)NCCCCC1CCN(C(=O)c2ccccc2)CC1 + COc1ccc(C2=N[C@@H](c3ccc(Cl)cc3)[C@@H](c3ccc(Cl)cc3)N2C(=O)N2CCNC(=O)C2)c(OC(C)C)c1 [Nutlin-3] (first compound 0.01 µM, partner dose 0.1 µM) | 1120% | 612% | 179% | 95.2% | 3570% | 233% | 83.9% | 121% | 55% | 322% | 316% | 55.8% | 34.9% | 159% | 83.8% | 638% | 128% | 91.7% |  | 
O=C(/C=C/c1cccnc1)NCCCCC1CCN(C(=O)c2ccccc2)CC1 + CNC(=O)c1cc(Oc2ccc(NC(=O)Nc3ccc(Cl)c(C(F)(F)F)c3)cc2)ccn1 [sorafenib] (first compound 0.01 µM, partner dose 0.4 µM) | 1300% | 397% | 68.1% | 243% | 4040% | 211% | 106% | 452% | 113% | 223% | 789% | 72.4% | 131% | 496% | 43.9% | 1760% | 70.9% | 98.3% |  | 
O=c1[nH]nc(Sc2ncc([N+](=O)[O-])s2)n1-c1ccc2c(c1)OCCO2 + Nc1ccn([C@@H]2O[C@H](CO)[C@@H](O)C2(F)F)c(=O)n1 [gemcitabine] (first compound 0.2 µM, partner dose 0.0004 µM) | 77.9% | 195% | 147% | 169% | 98.4% | 186% | 166% | 60.6% | 32.8% | 88.7% | 118% | 89% | 46.7% | 109% | 97.1% | 71.2% | 192% | 260% |  | 
CC[C@]1(O)C[C@H]2CN(CCc3c([nH]c4ccccc34)[C@@](C(=O)OC)(c3cc4c(cc3OC)N(C=O)[C@H]3[C@@](O)(C(=O)OC)[C@H](OC(C)=O)[C@]5(CC)C=CCN6CC[C@]43[C@@H]65)C2)C1 [vincristine] + C[C@]1(c2nc3c(C(N)=O)cccc3[nH]2)CCCN1 [Veliparib] (first compound 0.0001 µM, partner dose 1.4 µM) | 46% | 148% | 114% | 159% | 99.4% | 82.7% | 37.3% | 124% | 157% | 36.5% | 268% | 243% | 459% | 119% | 69.9% | 114% | 383% | 363% |  | 
CC[C@]1(O)C[C@H]2CN(CCc3c([nH]c4ccccc34)[C@@](C(=O)OC)(c3cc4c(cc3OC)N(C=O)[C@H]3[C@@](O)(C(=O)OC)[C@H](OC(C)=O)[C@]5(CC)C=CCN6CC[C@]43[C@@H]65)C2)C1 [vincristine] + Cn1sc(=O)n(Cc2ccccc2)c1=O [TDZD-8] (first compound 0.0001 µM, partner dose 0.4 µM) | 54.2% | 63.1% | 202% | 117% | 134% | 84.5% | 130% | 102% | 203% | 81.6% | 111% | 56.7% | 460% | 506% | 113% | 92.5% | 88.7% | 306% |  | 
Cc1cn(-c2cc(NC(=O)c3ccc(C)c(Nc4nccc(-c5cccnc5)n4)c3)cc(C(F)(F)F)c2)cn1 [nilotinib] + CS(=O)(=O)CCNCc1ccc(-c2ccc3ncnc(Nc4ccc(OCc5cccc(F)c5)c(Cl)c4)c3c2)o1 [lapatinib] (first compound 0.2 µM, partner dose 0.8 µM) | 87.5% | 98.5% | 84.6% | 117% | 69.9% | 173% | 62.1% | 350% | 82.3% | 82.8% | 209% | 103% | 42.3% | 74.9% | 41.9% | 43.8% | 175% | 123% | 89.2% | 89.2%
CCCCCCCCCCCCCCCCCCOP(=O)([O-])OC1CC[N+](C)(C)CC1 [Perifosine] + CS(=O)(=O)c1ccc(C(=O)Nc2ccc(Cl)c(-c3ccccn3)c2)c(Cl)c1 [vismodegib] (first compound 0.4 µM, partner dose 1 µM) | 69.7% | 66% | 128% | 82.9% | 138% | 3490% | 91.2% | 64.7% | 131% | 27.3% | 47.8% | 31.4% | 102% | 114% | 303% | 43.3% | 88.1% | 66.6% |  | 
Cc1ccc(Nc2nccc(N(C)c3ccc4c(C)n(C)nc4c3)n2)cc1S(N)(=O)=O [Pazopanib] + Cn1c(Nc2ccc(C(F)(F)F)cc2)nc2cc(Oc3ccnc(-c4ncc(C(F)(F)F)[nH]4)c3)ccc21 [CHIR265] (first compound 0.4 µM, partner dose 0.08 µM) | 130% | 137% | 56.5% | 82.8% | 201% | 178% | 68.2% | 83.6% | 81.9% | 95.5% | 129% | 70.2% | 207% | 360% | 223% | 113% | 117% | 62.5% |  | 
Cc1cn(-c2cc(NC(=O)c3ccc(C)c(Nc4nccc(-c5cccnc5)n4)c3)cc(C(F)(F)F)c2)cn1 [nilotinib] + CC(=O)O[C@@]12CO[C@@H]1C[C@H](O)[C@@]1(C)C(=O)[C@H](O)C3=C(C)[C@@H](OC(=O)[C@H](O)[C@@H](NC(=O)OC(C)(C)C)c4ccccc4)C[C@@](O)([C@@H](OC(=O)c4ccccc4)[C@H]21)C3(C)C [Docetaxel] (first compound 0.2 µM, partner dose 0.0001 µM) | 53.8% | 260% | 321% | 215% | 464% | 182% | 70.9% | 117% | 105% | 287% | 186% | 187% | 325% | 122% | 237% | 580% | 129% | 169% |  | 
CC[C@]1(O)C[C@H]2CN(CCc3c([nH]c4ccccc34)[C@@](C(=O)OC)(c3cc4c(cc3OC)N(C=O)[C@H]3[C@@](O)(C(=O)OC)[C@H](OC(C)=O)[C@]5(CC)C=CCN6CC[C@]43[C@@H]65)C2)C1 [vincristine] + COc1ccc(Cl)c(Nc2nc3ccccc3nc2NS(=O)(=O)c2cccc(NC(=O)C(C)(C)N)c2)c1 [XL147] (first compound 0.0001 µM, partner dose 0.8 µM) | 171% | 51.5% | 155% | 103% | 89.9% | 29.1% | 145% | 103% | 116% | 119% | 94.8% | 15.1% | 152% | 199% | 89.2% | 140% | 175% | 121% |  | 
COc1cc([C@@H]2c3cc4c(cc3[C@@H](O[C@@H]3O[C@@H]5CO[C@@H](C)O[C@H]5[C@H](O)[C@H]3O)[C@H]3COC(=O)[C@H]23)OCO4)cc(OC)c1O [etoposide] + CS(=O)(=O)c1ccc(C(=O)Nc2ccc(Cl)c(-c3ccccn3)c2)c(Cl)c1 [vismodegib] (first compound 0.02 µM, partner dose 1 µM) | 48.4% | 104% | 109% | 62% | 97.1% | 181% | 123% | 92.8% | 70.2% | 122% | 71% | 133% | 120% | 37.2% | 77.1% | 161% | 71.8% | 279% |  | 
N#CC[C@H](C1CCCC1)n1cc(-c2ncnc3[nH]ccc23)cn1 [ruxolitinib] + C[C@@H](Oc1cc(-c2cnn(C3CCNCC3)c2)cnc1N)c1c(Cl)ccc(F)c1Cl [Crizotinib] (first compound 1 µM, partner dose 0.2 µM) | 69.5% | 106% | 89.1% | 113% | 98.7% | 230% | 115% | 102% | 68.6% | 54.5% | 95% | 58.7% | 38.5% | 111% | 64.5% | 158% | 30% | 52.4% |  | 
O=C(Nc1cc(C(F)(F)F)cc(C(F)(F)F)c1)c1cc(Cl)ccc1O + C[C@@H](N)c1ccc(C(=O)Nc2ccnc3[nH]ccc23)cc1 [RKI983] (first compound 0.016 µM, partner dose 0.4 µM) | 88.5% | 91.2% | 137% | 72% | 96.1% | 77.8% | 277% | 48.3% | 121% | 169% | 160% | 2090% | 222% | 353% | 382% | 99.8% | 91.5% | 302% |  | 
Cc1cc(Nc2cc(N3CCN(C)CC3)nc(Sc3ccc(NC(=O)C4CC4)cc3)n2)n[nH]1 [Tozasertib] + CC1(C)CCC(c2ccc(Cl)cc2)=C(CN2CCN(c3ccc(C(=O)NS(=O)(=O)c4ccc(N[C@H](CCN5CCOCC5)CSc5ccccc5)c(S(=O)(=O)C(F)(F)F)c4)cc3)CC2)C1 [ABT263] (first compound 0.006 µM, partner dose 0.4 µM) | 70.7% | 297% | 115% | 145% | 294% | 242% | 151% | 155% | 144% | 99.7% | 366% | 324% | 136% | 222% | 22.5% | 197% | 129% | 111% |  | 
CC[C@]1(O)C[C@H]2CN(CCc3c([nH]c4ccccc34)[C@@](C(=O)OC)(c3cc4c(cc3OC)N(C=O)[C@H]3[C@@](O)(C(=O)OC)[C@H](OC(C)=O)[C@]5(CC)C=CCN6CC[C@]43[C@@H]65)C2)C1 [vincristine] + C[C@@H](N)c1ccc(C(=O)Nc2ccnc3[nH]ccc23)cc1 [RKI983] (first compound 0.0001 µM, partner dose 0.4 µM) | 71.3% | 93.1% | 85.4% | 101% | 151% | 42.3% | 134% | 59.7% | 421% | 111% | 240% | 3280% | 568% | 500% | 138% | 190% | 117% | 1070% |  | 

An excerpt from above, reduced to cleaved PARP positive nuclei fraction (COLO792):
SMILES	cleaved PARP positive nuclei fraction (COLO792)
O=C(/C=C/c1cccnc1)NCCCCC1CCN(C(=O)c2ccccc2)CC1 + COc1ccc(C2=N[C@@H](c3ccc(Cl)cc3)[C@@H](c3ccc(Cl)cc3)N2C(=O)N2CCNC(=O)C2)c(OC(C)C)c1 [Nutlin-3] (first compound 0.01 µM, partner dose 0.1 µM)	612%
Cc1cn(-c2cc(NC(=O)c3ccc(C)c(Nc4nccc(-c5cccnc5)n4)c3)cc(C(F)(F)F)c2)cn1 [nilotinib] + CS(=O)(=O)CCNCc1ccc(-c2ccc3ncnc(Nc4ccc(OCc5cccc(F)c5)c(Cl)c4)c3c2)o1 [lapatinib] (first compound 0.2 µM, partner dose 0.8 µM)	98.5%
